In publication PMC12765388 one finds binding data, which are given here for two molecules.

By UniProt entry, the sequences of proteins in these tests, tags left out.
UniProt Q9UQE7: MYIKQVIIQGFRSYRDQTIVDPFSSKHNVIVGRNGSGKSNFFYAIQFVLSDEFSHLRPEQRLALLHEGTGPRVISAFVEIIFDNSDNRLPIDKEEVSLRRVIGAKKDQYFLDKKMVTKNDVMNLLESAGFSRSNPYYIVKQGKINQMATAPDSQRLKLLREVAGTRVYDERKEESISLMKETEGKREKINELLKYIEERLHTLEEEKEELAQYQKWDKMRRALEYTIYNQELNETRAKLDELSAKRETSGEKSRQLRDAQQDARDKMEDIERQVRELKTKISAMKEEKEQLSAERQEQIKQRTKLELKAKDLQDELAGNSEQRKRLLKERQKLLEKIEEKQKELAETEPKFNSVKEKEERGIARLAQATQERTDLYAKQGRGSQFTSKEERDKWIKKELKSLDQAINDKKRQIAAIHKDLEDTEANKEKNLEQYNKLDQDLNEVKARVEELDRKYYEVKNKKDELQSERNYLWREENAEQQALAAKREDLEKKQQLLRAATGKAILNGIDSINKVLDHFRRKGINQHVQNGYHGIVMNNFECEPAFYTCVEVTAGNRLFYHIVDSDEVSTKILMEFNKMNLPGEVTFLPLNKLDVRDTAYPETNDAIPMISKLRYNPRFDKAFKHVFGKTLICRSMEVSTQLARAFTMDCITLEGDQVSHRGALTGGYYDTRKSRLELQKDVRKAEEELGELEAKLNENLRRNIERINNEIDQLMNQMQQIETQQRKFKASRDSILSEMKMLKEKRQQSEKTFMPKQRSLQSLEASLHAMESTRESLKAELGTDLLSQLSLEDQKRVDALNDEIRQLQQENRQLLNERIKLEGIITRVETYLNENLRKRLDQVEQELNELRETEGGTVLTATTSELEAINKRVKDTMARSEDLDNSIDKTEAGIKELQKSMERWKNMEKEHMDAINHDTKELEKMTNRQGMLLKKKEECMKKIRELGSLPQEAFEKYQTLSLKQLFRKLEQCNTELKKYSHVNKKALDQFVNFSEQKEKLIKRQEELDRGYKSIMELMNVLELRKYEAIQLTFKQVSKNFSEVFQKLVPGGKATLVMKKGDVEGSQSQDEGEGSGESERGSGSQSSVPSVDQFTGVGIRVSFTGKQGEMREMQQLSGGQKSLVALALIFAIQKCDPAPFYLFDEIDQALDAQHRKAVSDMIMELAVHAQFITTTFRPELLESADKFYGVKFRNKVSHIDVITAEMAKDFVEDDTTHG

These are yes or no findings as the source states them, for the method shown. In cells and extracts the contact can be indirect. Here binding means that the protein was enriched with, or labelled near, the bait; the list need not be complete. Sequences can lack the tags named with a protein.

The assay deals with SMC3 (human (endogenous in skin fibroblasts)) (UniProt Q9UQE7). Description: affinity purification with mass spectrometry; anti-SMC3 immunoprecipitation from control and Pt1 fibroblast extracts (4 mg extract; 10 ug antibody and 10 ul protein A beads per 1 mg), 1 h at room temperature, washes with TBS/T and TBS/T + 250 mM NaCl, elution with 100 mM glycine pH 2; nLC-MS/MS of gel slices.

B1: STAG3 (protein, UniProt Q9UJ98 1-1225)
chain: MSSPLQRAVGDTKRALSASSSSSASLPFDDRDSNHTSEGNGDSLLADEDTDFEDSLNRNVKKRAAKRPPKTTPVAKHPKKGSRVVHRHSRKQSEPPANDLFNAVKAAKSDMQSLVDEWLDSYKQDQDAGFLELVNFFIQSCGCKGIVTPEMFKKMSNSEIIQHLTEQFNEDSGDYPLIAPGPSWKKFQGSFCEFVRTLVCQCQYSLLYDGFPMDDLISLLTGLSDSQVRAFRHTSTLAAMKLMTSLVKVALQLSVHQDNNQRQYEAERNKGPGQRAPERLESLLEKRKELQEHQEEIEGMMNALFRGVFVHRYRDVLPEIRAICIEEIGCWMQSYSTSFLTDSYLKYIGWTLHDKHREVRLKCVKALKGLYGNRDLTTRLELFTSRFKDRMVSMVMDREYDVAVEAVRLLILILKNMEGVLTDADCESVYPVVYASHRGLASAAGEFLYWKLFYPECEIRMMGGREQRQSPGAQRTFFQLLLSFFVESELHDHAAYLVDSLWDCAGARLKDWEGLTSLLLEKDQNLGDVQESTLIEILVSSARQASEGHPPVGRVTGRKGLTSKERKTQADDRVKLTEHLIPLLPQLLAKFSADAEKVTPLLQLLSCFDLHIYCTGRLEKHLELFLQQLQEVVVKHAEPAVLEAGAHALYLLCNPEFTFFSRADFARSQLVDLLTDRFQQELEELLQSSFLDEDEVYNLAATLKRLSAFYNTHDLTRWELYEPCCQLLQKAVDTGEVPHQVILPALTLVYFSILWTLTHISKSDASQKQLSSLRDRMVAFCELCQSCLSDVDTEIQEQAFVLLSDLLLIFSPQMIVGGRDFLRPLVFFPEATLQSELASFLMDHVFIQPGDLGSGDSQEDHLQIERLHQRRRLLAGFCKLLLYGVLEMDAASDVFKHYNKFYNDYGDIIKETLTRARQIDRSHCSRILLLSLKQLYTELLQEHGPQGLNELPAFIEMRDLARRFALSFGPQQLQNRDLVVMLHKEGIQFSLSELPPAGSSNQPPNLAFLELLSEFSPRLFHQDKQLLLSYLEKCLQHVSQAPGHPWGPVTTYCHSLSPVENTAETSPQVLPSSKRRRVEGPAKPNREDVSSSQEESLQLNSIPPTPTLTSTAVKSRQPLWGLKEMEEEDGSELDFAQGQPVAGTERSRFLGPQYFQTPHNPSGPGLGNQLMRLSLMEEDEEEELEIQDESNEERQDTDMQASSYSSTSERGLDLLDSTELDIEDF
With B1, the binding result is recorded as “binds”.

B2: STAG1 (protein, UniProt Q8WVM7 1-1258)
chain: MITSELPVLQDSTNETTAHSDAGSELEETEVKGKRKRGRPGRPPSTNKKPRKSPGEKSRIEAGIRGAGRGRANGHPQQNGEGEPVTLFEVVKLGKSAMQSVVDDWIESYKQDRDIALLDLINFFIQCSGCRGTVRIEMFRNMQNAEIIRKMTEEFDEDSGDYPLTMPGPQWKKFRSNFCEFIGVLIRQCQYSIIYDEYMMDTVISLLTGLSDSQVRAFRHTSTLAAMKLMTALVNVALNLSIHQDNTQRQYEAERNKMIGKRANERLELLLQKRKELQENQDEIENMMNSIFKGIFVHRYRDAIAEIRAICIEEIGVWMKMYSDAFLNDSYLKYVGWTLHDRQGEVRLKCLKALQSLYTNRELFPKLELFTNRFKDRIVSMTLDKEYDVAVEAIRLVTLILHGSEEALSNEDCENVYHLVYSAHRPVAVAAGEFLHKKLFSRHDPQAEEALAKRRGRNSPNGNLIRMLVLFFLESELHEHAAYLVDSLWESSQELLKDWECMTELLLEEPVQGEEAMSDRQESALIELMVCTIRQAAEAHPPVGRGTGKRVLTAKERKTQIDDRNKLTEHFIITLPMLLSKYSADAEKVANLLQIPQYFDLEIYSTGRMEKHLDALLKQIKFVVEKHVESDVLEACSKTYSILCSEEYTIQNRVDIARSQLIDEFVDRFNHSVEDLLQEGEEADDDDIYNVLSTLKRLTSFHNAHDLTKWDLFGNCYRLLKTGIEHGAMPEQIVVQALQCSHYSILWQLVKITDGSPSKEDLLVLRKTVKSFLAVCQQCLSNVNTPVKEQAFMLLCDLLMIFSHQLMTGGREGLQPLVFNPDTGLQSELLSFVMDHVFIDQDEENQSMEGDEEDEANKIEALHKRRNLLAAFSKLIIYDIVDMHAAADIFKHYMKYYNDYGDIIKETLSKTRQIDKIQCAKTLILSLQQLFNELVQEQGPNLDRTSAHVSGIKELARRFALTFGLDQIKTREAVATLHKDGIEFAFKYQNQKGQEYPPPNLAFLEVLSEFSSKLLRQDKKTVHSYLEKFLTEQMMERREDVWLPLISYRNSLVTGGEDDRMSVNSGSSSSKTSSVRNKKGRPPLHKKRVEDESLDNTWLNRTDTMIQTPGPLPAPQLTSTVLRENSRPMGDQIQEPESEHGSEPDFLHNPQMQISWLGQPKLEDLNRKDRTGMNYMKVRTGVRHAVRGLMEEDAEPIFEDVMMSSRSQLEDMNEEFEDTMVIDLPPSRNRRERAELRPDFFDSAAIIEDDSGFGMPMF
Regarding B2, the binding result was “binds”.
